Experimental data published in publication doi:10.1101/2025.07.12.664526 (bioRxiv, 2025).
These are yes or no findings as the source states them, for the method shown. Binding seen in cells or lysates may run through a third protein. Binding calls can cover weak binding; strength is not graded here. Tags and fused reporters may be left off the sequences shown.

Biological target: T1, WalR wild type fused to SmBIT or LgBIT (split luciferase) (S. aureus ATCC29213) (UniProt Q7A8E1)
T1 sequence: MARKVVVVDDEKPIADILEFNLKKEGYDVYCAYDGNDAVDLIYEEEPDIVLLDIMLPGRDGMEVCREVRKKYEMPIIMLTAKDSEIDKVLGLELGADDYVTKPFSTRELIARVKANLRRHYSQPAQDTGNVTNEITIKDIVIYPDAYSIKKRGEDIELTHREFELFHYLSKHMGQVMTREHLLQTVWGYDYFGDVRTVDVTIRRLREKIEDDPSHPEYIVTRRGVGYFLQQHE
Experiment: split reporter

Q: With “PknB (cytoplasmic domain only) fused to LgBIT (split luciferase) (from UniProt A0A0H2XGG5) (domain or fragment)” as the substance, how does the binding read?
A: Its binding is “binds”.
